Data published in patent publication US5656440A, “Nucleotide sequences coding for the bovine β3 -adrenergic receptor (ARβ3) and their applications” (Virbac, priority 1993, dated 1997).

How the values were obtained:
bovine ARβ3 receptor [1] = molecular target: T1, bovine ARβ3 receptor (Bos taurus, UniProt P46626); experiment: competitive binding of ligands against [^125 I]cyanopindolol on intact CHO cells, bovine receptor (clone 62-26)
T1 construct: to liberate the 1598-base pair fragment containing the coding region of the bovine β3 gene; expressed in transfected cells
T1 sequence (P46626 1-405): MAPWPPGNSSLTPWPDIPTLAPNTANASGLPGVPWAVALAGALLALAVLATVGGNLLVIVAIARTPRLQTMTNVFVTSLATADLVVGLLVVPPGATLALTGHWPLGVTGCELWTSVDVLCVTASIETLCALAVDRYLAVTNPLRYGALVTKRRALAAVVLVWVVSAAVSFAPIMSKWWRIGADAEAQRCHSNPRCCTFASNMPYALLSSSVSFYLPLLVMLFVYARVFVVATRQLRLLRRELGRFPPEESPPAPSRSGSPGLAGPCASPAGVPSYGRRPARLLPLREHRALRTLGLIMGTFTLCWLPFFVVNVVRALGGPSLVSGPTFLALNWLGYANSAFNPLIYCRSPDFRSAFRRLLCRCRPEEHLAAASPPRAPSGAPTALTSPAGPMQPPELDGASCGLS
Procedure: Reaction is stopped by dilution with ice-cold PBS, the cells are filtered off and the radioactivity is measured in a gamma counter. The results were analysed using Graph-Pad.COPYRGT. software.

mouse ARβ3 receptor = settings: Mouse RAβ3-CHO; read-out: Binding Ki; cited from earlier work
bovine ARβ3 receptor [2] = molecular target: T1, bovine ARβ3 receptor; experiment: adenylate cyclase activation (cAMP accumulation) in CHO cells, bovine receptor (clone 62-26); assay type: cell-based
Procedure: Briefly, preconfluent cells in six-well plates (0.6×10^6 cells/well) are placed in contact or otherwise with increasing doses of ligands for 30 minutes at 37° C. Reaction is stopped by washing in PBS at 4° C. and adding 500 μl of 1N NaOH. After centrifugation and neutralization with 1N acetic acid, the cell lysates are recovered and the total amount of cAMP accumulated is determined using a commercial assay kit.

human ARβ3 receptor [3] = settings: Human RAβ3-CHO; read-out: Accumul. cAMP Kact (adenylate cyclase activation constant); cited from earlier work
human ARβ3 receptor [4] = settings: Human RAβ3-CHO; read-out: Binding Ki; cited from earlier work

Structure (SMILES): CC(C)NC[C@H](O)COc1cccc2ccccc12 [(- ) propranolol, (-)-propranolol]
- Ki (bovine ARβ3 receptor [1]): 589 ± 74 nM
- Ki (mouse ARβ3 receptor): 150 ± 22 nM
- EC50 (bovine ARβ3 receptor [2]): 661 nM
- EC50 (human ARβ3 receptor [3]): 1490 nM
- Ki (human ARβ3 receptor [4]): 145 ± 8 nM
